Laboratory results taken from the supplement of paper PMC6821926, “Diaminoquinazoline MMV675968 from Pathogen Box inhibits Acinetobacter baumannii growth through targeting of dihydrofolate reductase” (Scientific Reports, 2019).
± gives the uncertainty stated by the source. The list shows a part of the results.

What was measured:
[1] = tested on: Acinetobacter baumannii Mahidol; experiment: percent growth relative to DMSO-treated control; higher = less growth inhibition; settings: 10 µM; 18 h
[2] = tested on: Acinetobacter baumannii Naval-81; experiment: as above; settings: 10 µM; 18 h

SMILES	percent growth [1]	percent growth [2]
COc1ccc(S(=O)(=O)Nc2ccc(CN3CCN(C(=O)c4cccc(C#N)c4)CC3)cc2)cc1	92.9 ± 8.2%	110 ± 58%
Cc1nc(-c2ccccn2)nc(N2CCC(Cc3ccccc3)C2)c1Cl (stereo not drawn)	95.3 ± 6.7%	81 ± 5.5%
CCc1ccc(S(=O)(=O)Nc2cc(CN3CCN(CCC(C)C)CC3)ccc2C)cc1	94.2 ± 8%	94.6 ± 1.4%
CCOc1ccc(OCC(=O)Nc2cc(C)cc(C)c2)cc1	91 ± 9.3%	87 ± 17%
COc1cc(C2=NCCN2)cc2cc(-c3ccc(C4=NCCN4)cc3)oc12	98.6 ± 4.1%	113 ± 40%
CN1CCN(S(=O)(=O)c2ccc(-c3ccc4c(Nc5ccc6nn[nH]c6c5)ccnc4c3)cc2)CC1	62.8 ± 30%	83 ± 1.1%
CCN(CC)CCCCCCNc1cc(OC)cc2c(C)ccnc12	88.8 ± 24%	75.5 ± 40%
c1ccc(C[C@@H]2CN(c3nccc(Oc4ccc(-n5ccnc5)cc4)n3)CCN2)cc1	88.2 ± 3.6%	85.6 ± 13%
c1coc(CNc2nc(N3CCCCC3)nc3ccccc23)c1	108 ± 11%	90.5 ± 9%
COc1ccccc1C(C)NCC(=O)Nc1cc(C(F)(F)F)ccc1Cl (stereo not drawn)	67.3 ± 30%	102 ± 34%
CC(C)(C)c1cc(C(=O)N2CCN(c3nccnc3C#N)CC2)n(Cc2ccccc2)n1	100 ± 11%	90.5 ± 5.7%
O=C(NC1=NCCS1)c1sc2cc(F)ccc2c1Cl	84.8 ± 32%	92.4 ± 8.3%
Cc1cc(NC(=O)c2ccc(S(=O)(=O)N(Cc3ccccc3)C(C)C)cc2)no1	84.1 ± 3%	94.9 ± 13%
Cc1cnc(CCNC(=O)c2cc(-c3ccc(Cl)cc3)cs2)[nH]1	86.3 ± 7.8%	75.5 ± 23%
CC(C)(C(=O)Nc1ccc(F)cc1)n1cc(-c2ccccc2F)cn1	90.6 ± 10%	97.8 ± 16%
O=C(NCCc1ccn(-c2ccccc2)n1)C1CCCCC1	98.2 ± 9.9%	82.4 ± 10%
CN1CCCC1CCO[C@](C)(c1ccccc1)c1ccc(Cl)cc1 (stereo partly drawn)	103 ± 16%	53.1 ± 50%
CC(C)(C)n1nc(Cc2ccc(F)c(Cl)c2)c2c(N)ncnc21	95.4 ± 9.9%	96.5 ± 10%
COc1ccc(CN2CCOc3ccc(C(C)(O)CN(C)C)cc3C2)cc1C (stereo not drawn)	96.9 ± 5.9%	106 ± 24%
Cc1cc(Nc2ccncc2)n2nc(C)c(-c3ccccc3Cl)c2n1	113 ± 30%	89.8 ± 6.1%
CNC(=O)C1Cc2c([nH]c3cc(Cl)ccc23)C2(CCN(CCc3ccccc3)CC2)N1 (stereo not drawn)	93.8 ± 9.1%	91.6 ± 10%
CNc1nnc(Sc2cnn(-c3ccccc3)c(=O)c2Cl)s1	100 ± 26%	59.4 ± 55%
c1ccc(Oc2ccc(-c3cncc(-c4ccc5[nH]ccc5c4)n3)cc2)cc1	99.8 ± 9%	86.2 ± 4.1%

SMILES	percent growth [1]	percent growth [2]
Oc1c(I)cc(I)c2cccnc12	5.11 ± 7.7%	82 ± 12%
Cc1cc2ccccc2n1CC(=O)N1CC(C(=O)N2CCCCC2)Oc2ccccc21 (stereo not drawn)	79.5 ± 30%	108 ± 33%
CN1CCN(S(=O)(=O)c2ccc(-c3ccc4c(Nc5ncc(Cl)cn5)ccnc4c3)cc2)CC1	80.1 ± 19%	96.1 ± 9.1%
CNC(=O)C1Cc2ccccc2N1C(=O)Cc1ccc(F)cc1 (stereo not drawn)	91 ± 12%	82.1 ± 17%
Cc1ncc(-c2ccnc(Nc3ccc(S(C)(=O)=O)cc3)n2)n1C(C)C	100 ± 43%	80.5 ± 12%
COc1ccc(Oc2ccc([C@@H](C)N(C)c3ncc4c(N)nc(N)nc4n3)cc2)cc1	95.3 ± 4.8%	104 ± 12%
CCc1nc2ccccc2n1CC(O)COc1cc(C)ccc1Cl (stereo not drawn)	106 ± 13%	86 ± 11%
COCC(C)NC(=O)CSc1ncnc2sc(-c3ccccc3)cc12 (stereo not drawn)	69 ± 21%	128 ± 61%
Clc1ccc(CN2CCN(C3=NCCN3)CC2)cc1Cl	89 ± 7.9%	101 ± 20%
CN(C)c1cc(NC(=O)Nc2ccccc2)c2ccccc2n1	111 ± 16%	91 ± 64%
CC(C(=O)Nc1ccc2oc(-c3ccncc3)nc2c1)c1ccccc1 (stereo not drawn)	86.9 ± 15%	101 ± 8.8%
c1cc(C2=NCCN2)cc(-c2cc(-c3ccc(C4=NCCN4)cc3)no2)c1	97.3 ± 8.3%	93.4 ± 1.3%
COc1ccc(C2=NCCN2)cc1-c1cn(-c2cccc(C3=NCCN3)c2)nn1	76.8 ± 29%	96 ± 4.9%
O=C(Nc1ccc(N2CCNCC2)nc1)c1oc(-c2ccccc2)nc1C(F)(F)F	92.1 ± 9.5%	91.2 ± 3.6%
CCn1ncc2c(NC3CCOCC3)c(CNC(=O)c3ccnn3C)c(C)nc21	101 ± 4%	90.7 ± 10%
Clc1ccc(CCNc2cc(-c3ccccc3)nc3ncnn23)cc1	77.6 ± 36%	93.3 ± 8.9%
CCn1cnc2c(Nc3cc(F)cc(F)c3)nc(C#N)nc21	88 ± 12%	98.9 ± 16%
Cc1ccc(NC(=O)CC2COc3ccccc3O2)cc1Cl (stereo not drawn)	102 ± 9.8%	84 ± 8.7%
CCc1ccccc1-n1c(C)cn2c3c(=O)n(C(C(=O)OC)C(C)C)c(=O)n(C)c3nc12 (stereo not drawn)	103 ± 4.2%	93.6 ± 7.2%
CC(=O)Nc1ccc(NC(=O)c2cc(-c3cc(Cl)ccc3O)[nH]n2)cc1	136 ± 36%	88.9 ± 7.2%
Cc1cc(NCCc2ccccc2)nc(NC(=N)Nc2ccc(Cl)cc2)n1	86.9 ± 12%	87.5 ± 18%
COc1cccc(-n2nnnc2S(=O)(=O)Cc2ccccc2)c1	77.6 ± 27%	88.3 ± 15%
CNCCC(Oc1ccc(C(F)(F)F)cc1)c1ccccc1 (stereo not drawn)	96.4 ± 4.4%	80.3 ± 20%

Entries from the list above that contain an aryl thioether with sulfur outside any ring (2):
SMILES	percent growth [1]	percent growth [2]
CNc1nnc(Sc2cnn(-c3ccccc3)c(=O)c2Cl)s1	100 ± 26%	59.4 ± 55%
COCC(C)NC(=O)CSc1ncnc2sc(-c3ccccc3)cc12 (stereo not drawn)	69 ± 21%	128 ± 61%

Remaining list, next part.

SMILES	percent growth [1]	percent growth [2]
O=C(c1ccc(F)cc1)N(CCNc1ccccc1)c1ccccc1	96.9 ± 9.2%	89.8 ± 6.4%
Cc1nnc(NCc2cccc(Cl)c2)c2ccccc12	90.3 ± 12%	88.2 ± 9.7%
Cc1ccc2cc(C3NC(=O)c4ccccc4N3)c(Cl)nc2c1 (stereo not drawn)	100 ± 37%	99.4 ± 37%
Nc1nccc2ccc(-c3ccc4nccn4c3)cc12	83.5 ± 4.7%	97.3 ± 12%
CN1CCCN(C(c2ccccc2)c2ccc(Cl)cc2)CC1 (stereo not drawn)	96.2 ± 6.7%	102 ± 30%
CC(C)=CCC/C(C)=C\CNCCNC1C2CC3CC(C2)CC1C3 (stereo not drawn)	64.6 ± 44%	88 ± 17%
CCC(NC(=O)c1ccccc1NC(=O)c1ccc(C)cc1)C(=O)OC (stereo not drawn)	96.4 ± 6.4%	83.6 ± 5.7%
O=[N+]([O-])c1cn2c(n1)OC[C@@H](OCc1ccc(OC(F)(F)F)cc1)C2	97.5 ± 3.5%	91.3 ± 18%
c1ccc(Oc2ccc(-c3cc(N4CCNCC4)[nH]n3)cc2)cc1	108 ± 9.1%	92.7 ± 6.5%
O=C(c1[nH]nc2c1CCCC2)N1CCN(Cc2ccc3c(c2)OCO3)CC1	83.9 ± 40%	84.5 ± 10%
O=C(NC1CCCCC1)N1CCN(Cc2ccc3c(c2)OCO3)CC1	83.8 ± 20%	87 ± 1.6%
Cc1cc(Cl)ccc1NC(=O)CCc1ccc(S(=O)(=O)NCC(C)C)cc1	105 ± 11%	103 ± 26%
CCC(Sc1nc2ccccc2o1)C(=O)Nc1nnc(C)s1 (stereo not drawn)	98.2 ± 3.7%	85.8 ± 20%
CC(C)(C)n1nc(-c2ccccc2)c2c(N)ncnc21	93.3 ± 5%	102 ± 30%
Cc1ccc(C(=O)Nc2ccc(S(=O)(=O)O)c3cc(S(=O)(=O)O)cc(S(=O)(=O)O)c23)cc1NC(=O)c1cccc(NC(=O)Nc2cccc(C(=O)Nc3cc(C(=O)Nc4ccc(S(=O)(=O)O)c5cc(S(=O)(=O)O)cc(S(=O)(=O)O)c45)ccc3C)c2)c1	77.3 ± 29%	90.4 ± 22%
N=C(N)c1ccc(OCCCCCOc2ccc(C(=N)N)cc2)cc1	60.2 ± 52%	66.9 ± 32%
O=C(Nc1ccc(N2CCNCC2)cc1)c1ccn2ncc(-c3cccc(Cl)c3)c2n1	98.1 ± 3.2%	116 ± 28%
Nc1nccc2ccc(Oc3ccncc3)cc12	96.1 ± 2%	87.5 ± 28%
O=C(c1ccco1)N(CCCn1ccnc1)c1nc2c(Cl)cccc2s1	90.4 ± 18%	76 ± 13%
CCCCc1ccc(NC(=O)Nc2ccc(O[C@H]3CCCC[C@@H]3N(C)c3ccccc3)c(F)c2)cc1	71.1 ± 38%	89.3 ± 7%
O=C(Nc1ccccc1-c1nc2c(C(=O)O)cccc2o1)c1ccccc1	87.4 ± 9%	118 ± 34%
Cc1ccc(-c2nc(CN(Cc3ccccn3)C(C)C)cs2)o1	105 ± 13%	100 ± 24%
CCOc1ccc(-c2nc(CNCCc3ccc(F)cc3)cs2)cc1	93.2 ± 13%	75.3 ± 10%

Copied from the listing for reference:
SMILES	percent growth [1]	percent growth [2]
O=C(Nc1ccccc1-c1nc2c(C(=O)O)cccc2o1)c1ccccc1	87.4 ± 9%	118 ± 34%
Cc1ccc(-c2nc(CN(Cc3ccccn3)C(C)C)cs2)o1	105 ± 13%	100 ± 24%
CCOc1ccc(-c2nc(CNCCc3ccc(F)cc3)cs2)cc1	93.2 ± 13%	75.3 ± 10%

Carrying on:

SMILES	percent growth [1]	percent growth [2]
COC(=O)c1cccc2oc(-c3cccc(OC)c3NC(=O)c3cc(-c4ccccc4)on3)nc12	93.4 ± 6%	94.7 ± 17%
O=C(C1CCN(c2cc(-n3cccc3)ncn2)CC1)N1CCc2ccccc2C1	89.2 ± 9.9%	91.6 ± 11%
Nc1ccc2ncnc(Nc3ccc(OCc4cccc(F)c4)c(Cl)c3)c2c1	87 ± 18%	65.1 ± 60%
COc1ccc(N(CCc2cccc(C)n2)C(C)=O)cc1	92.5 ± 8.5%	98 ± 5.8%
COc1ccc2nc(C)cc(OCC(=O)NCc3ccccc3)c2c1	91.3 ± 29%	115 ± 28%
CN1CCN(c2nccc3nc(-c4ccc(F)c(F)c4)[nH]c23)CC1	88.3 ± 9.4%	93.8 ± 13%
CC(C)(C)C1CCC(CC2=C(O)C(=O)c3ccccc3C2=O)CC1 (stereo not drawn)	99.4 ± 30%	66 ± 18%
CS(=O)(=O)c1ccccc1C(=O)N(Cc1ccccc1)c1ccccc1	98.1 ± 9.9%	88.7 ± 7%
CC1=NN(c2nc3ccccc3s2)C(=O)C1Cc1cccc2ccccc12 (stereo not drawn)	59.1 ± 10%	84.2 ± 23%
CC[P](CC)(CC)=[Au][S][C@H]1O[C@@H](COC(C)=O)[C@H](OC(C)=O)[C@@H](OC(C)=O)[C@@H]1OC(C)=O	32.6 ± 30%	28.2 ± 26%
CC1COC2(CCN(c3nc(=O)c4cc(C(F)(F)F)cc([N+](=O)[O-])c4s3)CC2)O1 (stereo not drawn)	88.3 ± 43%	86 ± 24%
CCc1ccc(C(NCc2nc(N)nc(N(C)C)n2)C(C)C)cc1 (stereo not drawn)	110 ± 24%	95.1 ± 20%
CCCCN(CCCC)c1c(C#N)cc(S(=O)(=O)Nc2ccccc2)cc1C#N	100 ± 10%	97.4 ± 9.9%
CNc1cc(C)nc(C2CN(C(=O)c3n[nH]c4ccccc34)CCO2)c1 (stereo not drawn)	97.4 ± 21%	98.4 ± 6.5%
CC(=O)NCC1CN(c2ccc(-c3ccc(CNCc4cn[nH]n4)cc3)c(F)c2)C(=O)O1 (stereo not drawn)	92 ± 12%	90.5 ± 5.9%
NC(CC(=O)c1ccc(Cl)cc1Cl)C(Cl)(Cl)Cl (stereo not drawn)	93.5 ± 14%	84.8 ± 21%
CCC(C)NC(=O)c1ccc(NC(=O)C2(c3ccccc3)CCCC2)cc1 (stereo not drawn)	96.4 ± 6.5%	88 ± 14%
C[C@H]1c2cccc(O)c2C(=O)C2=C(O)[C@]3(O)C(=O)C(C(N)=O)=C(O)[C@@H](N(C)C)[C@@H]3[C@@H](O)[C@@H]21	0.00386 ± 0.4%	0%
COc1ccc(C2=NN(C3CCCCCC3)C(=O)C2(C)C)cc1OCCCCOc1ccc(-c2nn[nH]n2)cc1	95.1 ± 9.8%	98.6 ± 26%
Cc1cc2nc(NC(=O)C(C)(C)C)nc(Cl)c2n1Cc1ccc(Cl)cc1	65.1 ± 23%	99.1 ± 18%
